According to patent US20080051448A1, “STABILIZED EXTENDED RELEASE PHARMACEUTICAL COMPOSITIONS COMPRISING AN AMG-COA REDUCTASE INHIBITOR” (Orbus Pharma, Inc., priority 2005, published 2008):
At least one structure is not confirmed: it was looked up by name or label, or the drawing left a doubt.

Assay: degradation kinetics of fluvastatin in aqueous solution at various pH
Format: physicochemical

For `CC(C)n1c(/C=C/C(O)CC(O)CC(=O)O)c(-c2ccc(F)cc2)c2ccccc21` (centres unmarked) [Fluvastatin sodium], which “% Fluvastatin sodium remains after 1 hr at 37° C.” value (pH 1.0, 1 hr) is on record?
Its value is 10.9%.

And the “% Fluvastatin sodium remains after 24 hr at 37° C.” value (pH 1.0, 24 hr)?
Its value is 00.0%.

And the “% Fluvastatin sodium remains after 1 hr at 37° C.” value (pH 4.0, 1 hr)?
The value was 86.7%.

What about the “% Fluvastatin sodium remains after 24 hr at 37° C.” value (pH 4.0, 24 hr) of the same compound?
The value was 25.2%.

What about the “% Fluvastatin sodium remains after 1 hr at 37° C.” value (pH 6.0, 1 hr) of the same compound?
The value was 99.6%.

What about the “% Fluvastatin sodium remains after 24 hr at 37° C.” value (pH 6.0, 24 hr) of the same compound?
The value was 97.1%.

What about the “% Fluvastatin sodium remains after 1 hr at 37° C.” value (pH 7.8, 1 hr) of the same compound?
The value was 98.3%.

And the “% Fluvastatin sodium remains after 24 hr at 37° C.” value (pH 7.8, 24 hr)?
Its value is 98.0%.
